Reference: the supplement of paper PMC9233669
This sample is rich in variants without activity.

Legend:
biotinyl-Val-oxazolone = assay: self-aminoacylation, catalytic enhancement (BVO) (fold over background); higher = more active; k-Seq, kA / k0A0; sequences stand for … in GGGAAUGGAUCCACAUCUACGAAUUC…UUCACUGCAGACUUGACGAAGCUG
In short: (§1)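 Mutagenized RNA pools with a 21-nt variable region (0.43 μM) were reacted with each biotinyl-aminoacyl-oxazolone at 2–1250 μM for 90 minutes at room temperature, in 50 μL HEPES/NaCl/KCl/MgCl2/CaCl2 buffer containing 5% acetonitrile at pH 6.9–7.0. RNA captured on streptavidin was quantified by triplicate qPCR and by Illumina sequencing. The fraction reacted for each sequence was fit to a pseudo-first-order model with bootstrapping, and catalytic enhancement is the median kA divided by the uncatalyzed rate, taken as the low-activity peak of a bimodal Gaussian fit.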

biotinyl-Met-oxazolone = assay: self-aminoacylation, catalytic enhancement (BMO) (fold over background); higher = more active; k-Seq, kA / k0A0; sequences stand for … in GGGAAUGGAUCCACAUCUACGAAUUC…UUCACUGCAGACUUGACGAAGCUG
In short: as §1

biotinyl-Trp-oxazolone = assay: self-aminoacylation, catalytic enhancement (BWO) (fold over background); higher = more active; k-Seq, kA / k0A0; sequences stand for … in GGGAAUGGAUCCACAUCUACGAAUUC…UUCACUGCAGACUUGACGAAGCUG
In short: as §1

biotinyl-Leu-oxazolone = assay: self-aminoacylation, catalytic enhancement (BLO) (fold over background); higher = more active; k-Seq, kA / k0A0; sequences stand for … in GGGAAUGGAUCCACAUCUACGAAUUC…UUCACUGCAGACUUGACGAAGCUG
In short: as §1

biotinyl-Phe-oxazolone = assay: self-aminoacylation, catalytic enhancement (BFO) (fold over background); higher = more active; k-Seq, kA / k0A0; sequences stand for … in GGGAAUGGAUCCACAUCUACGAAUUC…UUCACUGCAGACUUGACGAAGCUG
In short: as §1

biotinyl-Ile-oxazolone = assay: self-aminoacylation, catalytic enhancement (BIO) (fold over background); higher = more active; k-Seq, kA / k0A0; sequences stand for … in GGGAAUGGAUCCACAUCUACGAAUUC…UUCACUGCAGACUUGACGAAGCUG
In short: as §1

Sequence | self-aminoacylation (biotinyl-Val-oxazolone) | self-aminoacylation (biotinyl-Met-oxazolone) | self-aminoacylation (biotinyl-Trp-oxazolone) | self-aminoacylation (biotinyl-Leu-oxazolone) | self-aminoacylation (biotinyl-Phe-oxazolone) | self-aminoacylation (biotinyl-Ile-oxazolone)
AUUACCCUGGUCGUCGAUUGA [Fam2.1 aminoacylation ribozyme variant] | 0.662 | 0.704 | 0.382 | 0.584 | 0.38 | 0.748
CCACCCUUCACGCAAUCGGUC [Fam1B.1 aminoacylation ribozyme variant] | 1.81 | 1.4 | 1.75 | 1.2 | 1.41 | 1.78
AAGUUUGCUAGUAGUUGCAAG [Fam3.1 aminoacylation ribozyme variant] | 0.737 | 1.04 | 1.1 | 0.791 | 0.949 | 0.985
AAGUUUGCUAAUAGUCGUCAG [Fam3.1 aminoacylation ribozyme variant] | 0.905 | 0.638 | 1.26 | 0.715 | 2.16 | 0.795
CUACUUCAAACAUUCGGUCGG [Fam1A.1 aminoacylation ribozyme variant] | 1.41 | 1.66 | 1.04 | 1.47 | 0.761 | 1.54
AAGUUUGCUAAUAGUCGCAUA [Fam3.1 aminoacylation ribozyme variant] | 1.22 | 0.936 | 1.23 | 0.954 | 1.58 | 1.21
CUACUUCAAACCAUCGGUAUG [Fam1A.1 aminoacylation ribozyme variant] | 0.743 | 0.736 | 0.5 | 0.832 | 0.676 | 0.874
AUUACCCUGGUUAUCGAGAGA [Fam2.1 aminoacylation ribozyme variant] | 1 | 0.49 | 0.57 | 0.609 | 0.969 | 0.837
AAGUUAGCUAAUACUCGCAAG [Fam3.1 aminoacylation ribozyme variant] | 1.5 | 1.05 | 1.51 | 1.49 | 1.48 | 1.6
AUUACCCUGGGCAUCGACUGA [Fam2.1 aminoacylation ribozyme variant] | 0.685 | 0.578 | 0.53 | 0.443 | 0.576 | 0.657
CUACUUUGAACAAUCGGUCUG [Fam1A.1 aminoacylation ribozyme variant] | 0.647 | 0.633 | 0.593 | 0.588 | 0.451 | 0.705
AUUCACCUAGGUCAUGGGGUG [Fam2.2 aminoacylation ribozyme variant] | 3.56 | 5.76 | 5.27 | 7.33 | 39.9 | 3.7
AAGGUUUCUAAUAGUCGCAAG [Fam3.1 aminoacylation ribozyme variant] | 1.53 | 1.04 | 1.6 | 1.05 | 2.65 | 1.64
AUUCACCUAGGUCUUAGGGUG [Fam2.2 aminoacylation ribozyme variant] | 2.85 | 5.1 | 4.24 | 7.06 | 32.2 | 3.08
CCUCACUUAAAGCAAUCGGUC [Fam1B.1 aminoacylation ribozyme variant] | 0.752 | 0.697 | 0.754 | 0.654 | 1.27 | 0.813
UUUACCCUGGUCAUCGAGUGG [Fam2.1 aminoacylation ribozyme variant] | 9.95 | 31.5 | 29.3 | 27.3 | 154 | 8.85
CUAUUUCAAACAAUCGGUUUG [Fam1A.1 aminoacylation ribozyme variant] | 0.81 | 0.903 | 3.18 | 1 | 4.11 | 0.907
UUACUUCAAACAGUCGGUCUG [Fam1A.1 aminoacylation ribozyme variant] | 1.15 | 1.36 | 1.25 | 1.19 | 1.92 | 1.29
CCACACUCCAAGCGAUCGGUC [Fam1B.1 aminoacylation ribozyme variant] | 1.55 | 1.3 | 1.42 | 1.06 | 0.651 | 1.39
CUACUUUAUACAAUCGGUCUG [Fam1A.1 aminoacylation ribozyme variant] | 0.882 | 0.832 | 0.626 | 0.808 | 0.815 | 0.857
AUUACCCUGGACAUCGAGAGA [Fam2.1 aminoacylation ribozyme variant] | 0.86 | 0.429 | 1.19 | 0.882 | 0.444 | 0.961
AAGUUUACUAAUAGUCCCAAG [Fam3.1 aminoacylation ribozyme variant] | 0.716 | 0.942 | 0.872 | 1.11 | 1.58 | 1.08
CCACACUUCAAGCACUCGGAC [Fam1B.1 aminoacylation ribozyme variant] | 1.16 | 1.13 | 1.29 | 1.05 | 0.879 | 1.23
AUUCACCUAUGUCAUCGUGUG [Fam2.2 aminoacylation ribozyme variant] | 0.877 | 0.86 | 0.418 | 0.795 | 0.532 | 0.831
AAGUUUGCUACUAGUCGCUAG [Fam3.1 aminoacylation ribozyme variant] | 0.895 | 0.641 | 0.856 | 0.667 | 1.03 | 0.893
CCACACUUCACCCAAUCGGUC [Fam1B.1 aminoacylation ribozyme variant] | 1.14 | 0.946 | 0.548 | 0.888 | 0.803 | 0.951

Sequence | self-aminoacylation (biotinyl-Val-oxazolone) | self-aminoacylation (biotinyl-Met-oxazolone) | self-aminoacylation (biotinyl-Trp-oxazolone) | self-aminoacylation (biotinyl-Leu-oxazolone) | self-aminoacylation (biotinyl-Phe-oxazolone) | self-aminoacylation (biotinyl-Ile-oxazolone)
CUACUUGCAACAAUCGGUCUG [Fam1A.1 aminoacylation ribozyme variant] | 0.682 | 0.776 | 0.574 | 0.641 | 0.525 | 0.67
CCACACUACAAGCAAUCGGUG [Fam1B.1 aminoacylation ribozyme variant] | 2.85 | 4.92 | 5.03 | 6.9 | 31.8 | 3.62
AUUAGGCUGGUCAUCGAGUGA [Fam2.1 aminoacylation ribozyme variant] | 2.48 | 3.01 | 4.23 | 2.85 | 8.97 | 2.53
AAGUUUGCGAAUAGUCGCACG [Fam3.1 aminoacylation ribozyme variant] | 1.24 | 0.942 | 0.865 | 1.34 | 0.545 | 1.1
AUUAGCCUGGUCAUCAAGUGA [Fam2.1 aminoacylation ribozyme variant] | 2.45 | 4.31 | 4.94 | 4.41 | 17.9 | 2.74
CUACUUAACACAAUCGGUCUG [Fam1A.1 aminoacylation ribozyme variant] | 0.95 | 0.853 | 0.779 | 0.743 | 0.671 | 0.849
CCACACUUCGAGCAAUCGGUC [Fam1B.1 aminoacylation ribozyme variant] | 1.17 | 0.883 | 1.05 | 0.92 | 1.41 | 0.932
GUUCACCUAGGUUAUCGGGUG [Fam2.2 aminoacylation ribozyme variant] | 3.44 | 4.84 | 5.35 | 4.08 | 34 | 3.41
AUGUUUGCAAAUAGUCGCAAG [Fam3.1 aminoacylation ribozyme variant] | 1.28 | 1.47 | 1.03 | 1.2 | 1.07 | 1.55
AAGUUUGCUACUAGACGCAAG [Fam3.1 aminoacylation ribozyme variant] | 0.469 | 0.448 | 0.938 | 0.608 | 0.747 | 0.615
CCACACUUCAAGCAGUCGGUA [Fam1B.1 aminoacylation ribozyme variant] | 1.08 | 0.707 | 1.02 | 1.03 | 0.579 | 1.04
AAGUUUGCUAAUAGUCUCAAU [Fam3.1 aminoacylation ribozyme variant] | 1.14 | 0.931 | 0.89 | 0.834 | 1.42 | 1.11
AUUACCCUGGUCAUCGAGGGU [Fam2.1 aminoacylation ribozyme variant] | 1.3 | 1.86 | 1.9 | 1.58 | 1.28 | 1.03
AAGUUCGCUAAAAGUCGCAAG [Fam3.1 aminoacylation ribozyme variant] | 1.67 | 2.51 | 3.39 | 2.68 | 4.4 | 2.42
AAGUUUGCUAGUAGUCGCAAC [Fam3.1 aminoacylation ribozyme variant] | 0.886 | 0.802 | 1.18 | 0.92 | 1.34 | 0.987
AAGUUUGCCAUUAGUCGCAAG [Fam3.1 aminoacylation ribozyme variant] | 0.936 | 1.45 | 1.11 | 0.869 | 1.84 | 0.922
CUACUUCAAACAAUCGGUCGA [Fam1A.1 aminoacylation ribozyme variant] | 0.974 | 0.807 | 6.82 | 0.992 | 14.9 | 0.884
AUUACCCUGGUCAUUGAUUGA [Fam2.1 aminoacylation ribozyme variant] | 0.925 | 0.758 | 0.442 | 0.723 | 0.689 | 0.926
CCACACUCCAAGCCAUCGGUC [Fam1B.1 aminoacylation ribozyme variant] | 1.29 | 1.26 | 0.873 | 1.43 | 1.22 | 1.63
AAGUAUGCUAAUAGGCGCAAG [Fam3.1 aminoacylation ribozyme variant] | 1.18 | 0.748 | 1.58 | 1.08 | 0.856 | 0.992
CCACACUUAAAACAAUCGGUC [Fam1B.1 aminoacylation ribozyme variant] | 0.932 | 0.841 | 0.855 | 0.619 | 1.09 | 0.999
CCACACUUCAGGAAAUCGGUC [Fam1B.1 aminoacylation ribozyme variant] | 1.13 | 1.22 | 1.09 | 1.49 | 1.28 | 1.4
AAGUUUGCUAAUAGUCGGAGG [Fam3.1 aminoacylation ribozyme variant] | 0.997 | 1.1 | 1.71 | 1.11 | 1.58 | 0.994
GUAGUUCAAACAAUCGGUCUG [Fam1A.1 aminoacylation ribozyme variant] | 0.855 | 0.808 | 1.62 | 0.827 | 1.4 | 0.92
AGUCACCUAGGUCAUCGGAUG [Fam2.2 aminoacylation ribozyme variant] | 1.04 | 1.21 | 0.786 | 1.18 | 1.24 | 1.2
